Measurements: paper doi:10.1101/2019.12.31.889139
No constants are given. Whether binding was seen depends on the method and setting. Binding seen in cells or lysates may run through a third protein. Some entries that bind do so weakly or less than the wild type. Where a sequence is shown, tags or fusion partners need not be part of it.

Amino acid sequences for entries named in this document (tags omitted). Residues count along the entry.
UniProt Q07954, residues 20-4544: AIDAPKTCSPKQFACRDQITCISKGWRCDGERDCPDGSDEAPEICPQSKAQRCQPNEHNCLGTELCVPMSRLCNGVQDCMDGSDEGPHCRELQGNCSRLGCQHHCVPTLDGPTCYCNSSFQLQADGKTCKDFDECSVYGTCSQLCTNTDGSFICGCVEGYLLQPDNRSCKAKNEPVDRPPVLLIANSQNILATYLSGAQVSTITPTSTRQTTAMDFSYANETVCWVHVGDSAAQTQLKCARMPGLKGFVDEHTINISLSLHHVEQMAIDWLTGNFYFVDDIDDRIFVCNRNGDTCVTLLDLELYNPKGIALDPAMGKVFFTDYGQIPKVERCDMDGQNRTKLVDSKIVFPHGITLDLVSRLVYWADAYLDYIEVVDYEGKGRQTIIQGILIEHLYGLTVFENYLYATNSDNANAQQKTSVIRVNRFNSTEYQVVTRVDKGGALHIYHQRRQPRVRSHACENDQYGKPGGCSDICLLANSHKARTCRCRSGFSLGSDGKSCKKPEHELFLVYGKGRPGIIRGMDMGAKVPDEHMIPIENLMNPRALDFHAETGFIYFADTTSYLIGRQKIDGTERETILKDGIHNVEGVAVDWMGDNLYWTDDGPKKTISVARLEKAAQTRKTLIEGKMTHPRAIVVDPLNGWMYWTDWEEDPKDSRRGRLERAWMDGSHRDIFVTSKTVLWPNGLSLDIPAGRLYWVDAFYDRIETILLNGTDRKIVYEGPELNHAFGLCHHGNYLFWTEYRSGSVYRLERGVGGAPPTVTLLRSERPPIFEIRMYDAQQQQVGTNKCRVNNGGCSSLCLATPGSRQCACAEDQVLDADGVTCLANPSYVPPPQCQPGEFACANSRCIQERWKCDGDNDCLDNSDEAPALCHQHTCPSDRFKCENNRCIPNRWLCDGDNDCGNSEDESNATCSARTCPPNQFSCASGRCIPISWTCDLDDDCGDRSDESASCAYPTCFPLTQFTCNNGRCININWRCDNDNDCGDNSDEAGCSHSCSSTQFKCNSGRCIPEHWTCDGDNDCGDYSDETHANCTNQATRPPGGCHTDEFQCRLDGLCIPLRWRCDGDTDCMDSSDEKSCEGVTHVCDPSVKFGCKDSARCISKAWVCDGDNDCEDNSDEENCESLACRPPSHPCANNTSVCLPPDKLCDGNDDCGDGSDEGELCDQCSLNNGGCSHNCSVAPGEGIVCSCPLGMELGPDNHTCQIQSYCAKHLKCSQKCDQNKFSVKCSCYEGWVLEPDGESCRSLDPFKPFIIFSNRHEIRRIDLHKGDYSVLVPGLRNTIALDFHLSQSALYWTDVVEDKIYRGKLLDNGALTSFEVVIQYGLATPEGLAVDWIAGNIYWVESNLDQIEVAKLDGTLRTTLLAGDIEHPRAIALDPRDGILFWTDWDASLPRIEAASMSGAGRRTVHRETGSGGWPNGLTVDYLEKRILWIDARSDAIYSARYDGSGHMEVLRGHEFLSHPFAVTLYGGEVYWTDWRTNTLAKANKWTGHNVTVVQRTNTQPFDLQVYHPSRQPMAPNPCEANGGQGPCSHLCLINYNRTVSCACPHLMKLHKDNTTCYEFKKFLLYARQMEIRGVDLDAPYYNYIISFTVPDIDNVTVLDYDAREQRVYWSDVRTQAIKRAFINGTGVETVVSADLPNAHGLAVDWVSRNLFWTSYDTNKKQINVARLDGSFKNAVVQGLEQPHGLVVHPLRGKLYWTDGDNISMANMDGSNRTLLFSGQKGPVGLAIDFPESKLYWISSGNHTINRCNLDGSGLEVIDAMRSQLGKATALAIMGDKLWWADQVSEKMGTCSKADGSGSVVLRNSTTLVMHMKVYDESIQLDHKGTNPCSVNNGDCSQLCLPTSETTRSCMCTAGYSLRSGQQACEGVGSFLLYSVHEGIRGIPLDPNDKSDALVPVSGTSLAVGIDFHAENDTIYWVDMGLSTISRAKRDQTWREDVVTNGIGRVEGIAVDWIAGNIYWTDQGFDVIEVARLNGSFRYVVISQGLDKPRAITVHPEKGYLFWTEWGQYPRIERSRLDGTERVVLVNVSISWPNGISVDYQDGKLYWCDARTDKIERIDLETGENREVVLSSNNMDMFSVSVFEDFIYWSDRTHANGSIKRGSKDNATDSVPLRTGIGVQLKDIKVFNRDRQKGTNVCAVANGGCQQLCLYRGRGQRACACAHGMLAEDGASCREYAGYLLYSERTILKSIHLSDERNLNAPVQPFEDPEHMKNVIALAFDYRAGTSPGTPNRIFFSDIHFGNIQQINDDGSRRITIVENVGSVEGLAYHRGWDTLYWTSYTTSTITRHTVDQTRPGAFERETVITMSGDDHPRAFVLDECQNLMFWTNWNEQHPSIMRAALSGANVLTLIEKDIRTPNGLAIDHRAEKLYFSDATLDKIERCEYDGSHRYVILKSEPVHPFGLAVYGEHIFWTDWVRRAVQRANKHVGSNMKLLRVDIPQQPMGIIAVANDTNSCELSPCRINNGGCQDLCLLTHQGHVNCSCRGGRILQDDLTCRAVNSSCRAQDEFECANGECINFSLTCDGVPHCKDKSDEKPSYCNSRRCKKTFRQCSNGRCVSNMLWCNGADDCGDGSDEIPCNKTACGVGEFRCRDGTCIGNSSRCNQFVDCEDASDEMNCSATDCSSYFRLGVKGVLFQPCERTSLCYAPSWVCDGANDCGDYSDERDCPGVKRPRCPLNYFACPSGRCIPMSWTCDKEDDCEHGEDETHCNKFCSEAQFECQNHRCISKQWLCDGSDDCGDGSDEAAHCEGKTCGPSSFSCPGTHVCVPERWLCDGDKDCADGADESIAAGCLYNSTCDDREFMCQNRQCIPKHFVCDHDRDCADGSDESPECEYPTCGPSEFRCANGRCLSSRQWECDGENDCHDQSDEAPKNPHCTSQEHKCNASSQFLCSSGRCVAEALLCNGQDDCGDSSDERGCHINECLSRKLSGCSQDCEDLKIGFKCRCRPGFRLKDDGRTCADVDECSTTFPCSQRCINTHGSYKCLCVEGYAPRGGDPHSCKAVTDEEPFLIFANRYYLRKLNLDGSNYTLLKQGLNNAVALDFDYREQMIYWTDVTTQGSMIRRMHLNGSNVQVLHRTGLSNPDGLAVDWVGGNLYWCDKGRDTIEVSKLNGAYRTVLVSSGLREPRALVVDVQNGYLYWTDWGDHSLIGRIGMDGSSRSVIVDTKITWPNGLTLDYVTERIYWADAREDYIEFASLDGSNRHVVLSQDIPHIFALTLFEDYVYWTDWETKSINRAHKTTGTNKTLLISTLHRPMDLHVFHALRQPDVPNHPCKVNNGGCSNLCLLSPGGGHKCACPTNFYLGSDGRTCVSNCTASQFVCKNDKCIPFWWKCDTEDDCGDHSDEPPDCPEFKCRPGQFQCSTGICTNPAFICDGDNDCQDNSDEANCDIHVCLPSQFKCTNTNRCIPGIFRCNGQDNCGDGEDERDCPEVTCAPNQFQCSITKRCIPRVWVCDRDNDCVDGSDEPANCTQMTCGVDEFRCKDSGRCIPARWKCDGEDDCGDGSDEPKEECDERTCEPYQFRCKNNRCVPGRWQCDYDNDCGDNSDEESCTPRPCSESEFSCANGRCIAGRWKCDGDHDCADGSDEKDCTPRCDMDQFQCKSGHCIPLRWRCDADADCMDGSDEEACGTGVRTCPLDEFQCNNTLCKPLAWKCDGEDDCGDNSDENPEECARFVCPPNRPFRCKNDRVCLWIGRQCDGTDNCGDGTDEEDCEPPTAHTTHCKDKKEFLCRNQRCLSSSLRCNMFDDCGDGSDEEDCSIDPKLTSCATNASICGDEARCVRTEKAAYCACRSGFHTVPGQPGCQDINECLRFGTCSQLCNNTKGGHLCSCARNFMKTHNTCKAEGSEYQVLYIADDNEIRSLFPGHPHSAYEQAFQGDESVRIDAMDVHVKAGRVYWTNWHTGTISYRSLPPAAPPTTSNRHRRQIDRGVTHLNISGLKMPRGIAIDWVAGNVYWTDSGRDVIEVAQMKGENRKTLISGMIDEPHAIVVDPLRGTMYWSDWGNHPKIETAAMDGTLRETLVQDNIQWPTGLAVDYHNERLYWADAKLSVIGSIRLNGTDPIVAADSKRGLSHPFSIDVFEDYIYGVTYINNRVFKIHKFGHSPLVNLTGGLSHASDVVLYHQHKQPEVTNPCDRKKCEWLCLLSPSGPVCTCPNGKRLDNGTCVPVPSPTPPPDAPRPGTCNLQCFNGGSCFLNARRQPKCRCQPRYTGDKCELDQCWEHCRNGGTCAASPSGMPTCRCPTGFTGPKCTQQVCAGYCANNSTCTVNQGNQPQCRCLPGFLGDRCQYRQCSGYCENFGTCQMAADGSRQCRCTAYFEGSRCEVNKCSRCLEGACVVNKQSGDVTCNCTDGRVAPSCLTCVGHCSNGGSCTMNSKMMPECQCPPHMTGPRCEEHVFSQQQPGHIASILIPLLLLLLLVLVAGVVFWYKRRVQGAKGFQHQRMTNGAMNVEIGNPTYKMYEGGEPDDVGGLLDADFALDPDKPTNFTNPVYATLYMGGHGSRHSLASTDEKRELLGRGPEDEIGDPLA
UniProt P05067, residues 18-770: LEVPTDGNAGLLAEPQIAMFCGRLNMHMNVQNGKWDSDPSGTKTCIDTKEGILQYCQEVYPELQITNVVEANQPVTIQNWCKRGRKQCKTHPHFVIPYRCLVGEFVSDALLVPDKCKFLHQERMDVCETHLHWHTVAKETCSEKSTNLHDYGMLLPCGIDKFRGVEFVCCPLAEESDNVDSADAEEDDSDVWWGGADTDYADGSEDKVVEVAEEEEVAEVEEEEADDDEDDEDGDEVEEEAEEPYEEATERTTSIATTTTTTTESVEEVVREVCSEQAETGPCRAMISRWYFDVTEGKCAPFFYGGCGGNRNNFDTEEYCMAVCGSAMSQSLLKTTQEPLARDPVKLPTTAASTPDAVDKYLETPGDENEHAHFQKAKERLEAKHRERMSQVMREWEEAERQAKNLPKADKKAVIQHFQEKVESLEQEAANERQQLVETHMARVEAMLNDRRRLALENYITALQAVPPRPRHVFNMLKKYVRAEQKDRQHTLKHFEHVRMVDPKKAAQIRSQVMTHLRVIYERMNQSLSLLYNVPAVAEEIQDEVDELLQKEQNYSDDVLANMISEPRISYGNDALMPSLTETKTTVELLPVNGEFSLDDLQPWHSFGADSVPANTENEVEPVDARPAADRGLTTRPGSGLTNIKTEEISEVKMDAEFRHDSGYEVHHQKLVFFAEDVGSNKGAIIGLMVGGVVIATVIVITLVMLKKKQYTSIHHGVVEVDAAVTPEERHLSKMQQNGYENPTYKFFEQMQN

Molecular target: T1, METTL7B-HaloTag fusion protein (human) (UniProt Q6UX53)
T1 sequence: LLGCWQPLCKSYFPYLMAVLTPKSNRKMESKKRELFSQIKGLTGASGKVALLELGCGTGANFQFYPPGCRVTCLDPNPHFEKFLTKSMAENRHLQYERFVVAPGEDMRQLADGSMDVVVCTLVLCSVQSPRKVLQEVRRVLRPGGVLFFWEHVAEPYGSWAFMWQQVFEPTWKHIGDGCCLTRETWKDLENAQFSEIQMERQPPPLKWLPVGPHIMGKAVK
Assay: pull-down

binding	Substance
binds	LRP1 (from UniProt Q07954)
binds	amyloid precursor protein (from UniProt P05067 18-770)
